Laboratory results reported in publication PMC6553764.
These are yes or no findings as the source states them, for the method shown. Some results given as binding are weak or reduced against the parent protein; the word gives no strength.

Amino acid sequences for entries named in this document (tags omitted).
UniProt Q06142: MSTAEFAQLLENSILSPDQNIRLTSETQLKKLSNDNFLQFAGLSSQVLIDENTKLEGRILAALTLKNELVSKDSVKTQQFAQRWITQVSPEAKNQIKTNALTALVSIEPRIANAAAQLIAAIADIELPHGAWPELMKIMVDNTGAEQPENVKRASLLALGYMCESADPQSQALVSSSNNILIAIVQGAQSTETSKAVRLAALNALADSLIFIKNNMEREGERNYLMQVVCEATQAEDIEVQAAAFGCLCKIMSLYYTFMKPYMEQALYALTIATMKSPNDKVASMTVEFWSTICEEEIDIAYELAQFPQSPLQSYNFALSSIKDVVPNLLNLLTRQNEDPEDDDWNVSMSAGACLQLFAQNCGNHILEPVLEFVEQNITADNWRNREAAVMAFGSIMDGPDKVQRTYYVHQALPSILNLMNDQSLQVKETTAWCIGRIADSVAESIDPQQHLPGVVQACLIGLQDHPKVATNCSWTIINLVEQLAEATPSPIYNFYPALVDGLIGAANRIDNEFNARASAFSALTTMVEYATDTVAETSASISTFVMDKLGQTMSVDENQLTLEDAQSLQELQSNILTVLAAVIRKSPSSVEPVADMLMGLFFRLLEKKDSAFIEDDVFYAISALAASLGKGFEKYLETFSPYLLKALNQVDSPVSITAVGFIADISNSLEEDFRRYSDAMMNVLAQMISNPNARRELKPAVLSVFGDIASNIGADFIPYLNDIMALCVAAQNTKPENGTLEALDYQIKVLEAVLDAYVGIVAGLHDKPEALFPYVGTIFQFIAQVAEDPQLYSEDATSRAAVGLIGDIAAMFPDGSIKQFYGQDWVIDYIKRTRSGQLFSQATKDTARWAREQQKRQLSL

Target: Nsp1FG-Cys-His6 (S. cerevisiae)
Assay: QCM-D; Nsp1FG-modified sensor; 1 uM GST-Kap95 flowed for 10 s, 30 s, 1 min, 2 min or 60 min, followed by a dissociation phase; both purified

binding: binds
Substance: GST-Kap95 (from UniProt Q06142 1-861)
